Experimental findings from PMC11294482 are described below.

Amino acid sequences for entries named in this document (tags omitted).
UniProt P08670: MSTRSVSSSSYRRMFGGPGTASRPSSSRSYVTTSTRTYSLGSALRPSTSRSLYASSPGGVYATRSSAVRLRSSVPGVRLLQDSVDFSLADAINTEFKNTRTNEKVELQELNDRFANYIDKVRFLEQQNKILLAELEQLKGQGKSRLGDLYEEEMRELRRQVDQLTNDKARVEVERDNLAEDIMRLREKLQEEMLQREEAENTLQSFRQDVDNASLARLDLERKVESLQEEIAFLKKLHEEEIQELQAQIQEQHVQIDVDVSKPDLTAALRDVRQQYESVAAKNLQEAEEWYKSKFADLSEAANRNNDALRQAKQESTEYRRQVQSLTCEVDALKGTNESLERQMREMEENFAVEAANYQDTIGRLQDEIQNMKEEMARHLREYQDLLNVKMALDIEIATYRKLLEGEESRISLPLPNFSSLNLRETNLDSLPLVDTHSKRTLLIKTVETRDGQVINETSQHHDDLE

For assay [1], the target named is T1, XRCC2 (human (endogenous in A549)) (UniProt O43543).
T1 sequence: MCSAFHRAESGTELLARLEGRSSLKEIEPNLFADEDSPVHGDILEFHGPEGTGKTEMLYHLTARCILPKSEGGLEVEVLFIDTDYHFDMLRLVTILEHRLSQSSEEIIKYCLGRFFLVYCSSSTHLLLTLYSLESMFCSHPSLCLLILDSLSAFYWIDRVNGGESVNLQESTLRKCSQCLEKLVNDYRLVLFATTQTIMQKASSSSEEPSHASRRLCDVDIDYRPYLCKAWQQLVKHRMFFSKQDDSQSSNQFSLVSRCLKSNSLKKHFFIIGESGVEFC
The assay can be described thus: co-IP; A549 cell lysate, antibody to XRCC2 or to vimentin (IgG as control) overnight at 4 °C, magnetic beads, Western blot.

In assay [2] the target is vimentin (human (endogenous in A549)) (UniProt P08670). Described as above.

These are yes or no findings as the source states them, for the method shown. In cells and extracts the contact can be indirect. Some entries that bind do so weakly or less than the wild type.

For vimentin (from UniProt P08670 1-466), the binding entry in assay [1] is on record as “binds”.

B1: XRCC2 (protein, UniProt O43543 1-280)
chain: T1 sequence
In the case of B1, the binding entry in assay [2] is on record as “binds”.
